Hit rate of the full screen: of about 340,000 compounds, about 6,200 (1.8%) were called active. The shares of active, inactive and inconclusive entries below differ from those in the screen. The call rests on the fitted dose curve; in most records, active means well fitted activation curve with a large enough effect; inconclusive means small, poorly fitted or top-dose-only effect; inactive means no such curve, though single readings can be large or run the other way. Where the call is inconclusive, the potency comes from a doubtful curve fit.
Test: A quantitative high throughput screen for small molecules that induce DNA re-replication in SW480 colon adenocarcinoma cells. Further: nearly all actives have a fitted effect of over 55% in size. On re-replication activation: % of control where 0% means no effect.
Settings: Hoechst DNA content imaging, 48 h; re-replication activation: at 46.1 µM (top of the series) unless noted
Method in brief: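 DNA re-replication was detected as more nuclei of elevated Hoechst intensity after 48 hr exposure to compound (23 nL pinned per well of 250 cells).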
For `COc1cccc(C2=CC(c3cccc(OC)c3OC(F)F)n3nnnc3N2)c1` (centres undefined), the Potency was inconclusive: 29.1 µM [activator, single point]. With `Cc1ccccc1CN1CCN(c2nc3ccccc3s2)CC1` the Potency was “inactive”. For `Cn1cc(/C=C(\NC(=O)c2ccccc2Cl)C(=O)NCCCn2ccnc2)c2ccccc21`, the Potency was inconclusive: 3.55 µM [activator, single point]. In the case of `Cc1ccccc1NC(=S)NNC(=O)c1csc2c1CCC(C)C2` (centres undefined), the Potency is reported as inconclusive: 17.8 µM [activator, partial curve, poor fit]. With `Cc1ccc2c(C)nc(Nc3nc(CSc4nc5ccccc5s4)cc(=O)[nH]3)nc2c1` the Potency was “inactive”. For `C(=C\c1ccccn1)/c1ccncc1`, the Potency was “inactive”. In the case of `Cc1ccc(C(=O)NC(=S)NCC2CCCO2)cc1` (centres undefined), the Potency is reported as “inactive”. With `COc1ccc(OC)c2c(N3CC(C)OC(C)C3)cc(C(F)(F)F)nc12` (centres undefined) the Potency was inconclusive: 29.1 µM [activator, single point]. With `CCc1ccc(NC(=O)COc2ccc(/C=C(/C#N)c3nc4ccccc4[nH]3)cc2OC)cc1` the Potency was inconclusive: 23.1 µM [activator, single point]. With `Fc1ccc(CN2CCN3CCCC3C2C2CCCCC2)cc1F` (centres undefined) the Potency was inconclusive: 0.116 µM [activator, full curve, poor fit]. With `CCOc1cccc2sc(Nc3nc4ccc(NC(C)=O)cc4s3)nc12` the Potency was active: 4.11 µM. For `CCOC(=O)CNS(=O)(=O)c1ccc(S(=O)(=O)NC2CC2)cc1`, the Potency was “inactive”. In the case of `CCOc1cc(/C=C2/C(=O)ON=C2C)ccc1OCc1ccccc1F`, the Potency is reported as active: 23.1 µM. In the case of `Nc1nc(-c2cccs2)cs1`, the Potency is reported as inconclusive: 29.1 µM [activator, partial curve, poor fit]. In the case of `Cc1ccc(SCc2[nH]nc3c2C(c2ccc(C)o2)C(C#N)=C(N)O3)cc1` (centres undefined), the Potency is reported as “inactive”. For `CCCC(=O)NC(c1ccccc1OC)c1ccc2cccnc2c1O` (centres undefined), the Potency was inconclusive: 29.1 µM [activator, single point]. For `O=c1nc(N/N=C/c2ccccn2)cn[nH]1`, the Potency was inconclusive: 2.59 µM [activator, full curve, poor fit]. With `NC[C@@H]1O[C@H](C23CC4CC(CC(C4)C2)C3)Cc2c1ccc(O)c2O` the Potency was inconclusive: 1 µM [activator, partial curve, poor fit]. For `Cc1nn(C)c(Cl)c1S(=O)(=O)N[C@@H](c1ccccc1)[C@]1(C)C[C@H]1[C@@H](C)C(=O)Nc1ccc2ccccc2c1`, the Potency was inconclusive: 7.31 µM [activator, partial curve]. For `CCOc1cc(C=C(C#N)C#N)ccc1Oc1ccc([N+](=O)[O-])cn1`, the Potency was “inactive”. With `CCCOP(=O)(c1ccccc1)c1ccccc1` the Potency was inconclusive: 29.1 µM [activator, single point]. For `CC(C)NC(=O)C(c1ccc(F)cc1)N(C(=O)CCC(=O)Nc1ccccn1)c1cccc(F)c1` (centres undefined), the Potency was “inactive”. With `CCOc1ccc(N2C(=O)S/C(=C\c3cccn3C)C2=O)cc1` the Potency was inconclusive: 29.1 µM [activator, single point]. In the case of `Cc1cc(OCC(=O)N2CCc3ccccc3C2)c2c(-c3ccccc3)cc(=O)oc2c1`, the Potency is reported as inconclusive: 1.26 µM [activator, full curve, poor fit]. In the case of `O=Cc1ccc2noc(-c3ccc(Cl)cc3)c2c1`, the Potency is reported as inconclusive: 23.1 µM [activator, single point]. With `CC(=O)Nc1ccc(-c2csc(Nc3ccc(Cl)cn3)n2)cc1` the Potency was inconclusive: 29.1 µM [activator, single point]. For `CCN(CC)c1ccc(C=Nc2cccc(S(=O)(=O)N3CCOCC3)c2)c(O)c1`, the Potency was “inactive”. In the case of `COc1ccc(C2CC(c3ccc4ccccc4c3)=NN2C(=O)CNC2CCCCC2)cc1` (centres undefined), the Potency is reported as inconclusive: 29.1 µM [activator, single point]. In the case of `C[C@@H]1COC(=O)[C@@H](Cc2ccc(F)cc2)CC/C=C\C[C@@H](CC(=O)NCCO)C(=O)N1`, the Potency is reported as “inactive”. With `COc1cccc(OC)c1C(=O)OCC(=O)N(C)c1ccccc1` the Potency was “inactive”. For `CC(C)NC(=O)CSc1nnc(CNC(=O)OC(C)(C)C)n1C`, the Potency was “inactive”. With `COCc1cc(C)nc(SCc2ccc(Cl)cc2)c1C#N` the Potency was inconclusive: 20.6 µM [activator, partial curve, poor fit]. With `CCC(=O)Nc1cc(NC(=O)CSc2ncc(-c3ccc(F)cc3)n2Cc2ccco2)ccc1C` the Potency was “inactive”. For `CCCc1cc(=O)oc2cc(OCc3ccc(OC)cc3)c(Cl)cc12`, the Potency was inconclusive: 29.1 µM [activator, single point]. For `CCN(CC)c1ccc(-c2nn3c(-c4ccccc4OC)nnc3s2)cc1`, the Potency was active: 1.3 µM. For `Cc1ccc2[nH]c(=O)c(CN(CCCO)S(=O)(=O)c3c(C)ccc4nsnc34)cc2c1`, the Potency was inconclusive: 29.1 µM [activator, single point]. With `COc1ccc(N=C2NC(=O)/C(=C/c3ccc(O)c(OC)c3)S2)cc1` the Potency was active: 23.1 µM. For `COc1ccc2c(c1)-c1c(ssc1=S)C(C)(C)N2S(=O)(=O)c1ccc(C)cc1`, the Potency was active: 7.31 µM. With `CC(C)OC(=O)CC1C(=O)NCCN1C(=S)NC(=O)c1ccccc1` (centres undefined) the Potency was inconclusive: 3.26 µM [activator, single point]. With `O=C(C1CCN(C2CCN(C/C(Cl)=C/c3ccccc3)CC2)CC1)N1CCOCC1` the Potency was inconclusive: 4.61 µM [activator, partial curve, poor fit]. In the case of `COC(=O)CSc1nc(SCc2ccc(C)cc2)nc2c1CCCC2`, the Potency is reported as “inactive”. In the case of `Cc1cc(C)cc(NC(=O)/C=C/c2ccc([N+](=O)[O-])s2)c1`, the Potency is reported as inconclusive: 1.16 µM [activator, full curve, poor fit]. With `Cc1cc(C)cc(NC(=S)N(Cc2ccc(Br)cc2)Cc2ccc(C(=O)O)cc2)c1` the Potency was “inactive”. For `COCCN(C(=O)CSc1nnc(Nc2ccc(C)cc2)s1)c1c(N)n(CC(C)C)c(=O)[nH]c1=O`, the Potency was inconclusive: 29.1 µM [activator, single point]. In the case of `CCOc1ccccc1NC(=S)NC(=O)C1CC1`, the Potency is reported as “inactive”. In the case of `CCc1ccc(-c2cc3c(=O)n(CC(=O)NCCCN4CCN(Cc5ccccc5)CC4)nc(C)n3n2)cc1`, the Potency is reported as inconclusive: 29.1 µM [activator, single point]. In the case of `O=C(O)c1nc(N2CCCCC2)ncc1Cl`, the re-replication activation is reported as inactive: 0.491% [at 9.22 µM]. For `COc1ccc(CNC(=O)C2CCN(c3nc(-c4ccccc4)nc4c3CCC4)CC2)cc1`, the Potency was “inactive”. For `CCN(CCCNC(=O)CN1C(=O)COc2ccc(S(=O)(=O)N3CCC(C)CC3)cc21)Cc1ccccc1`, the Potency was “inactive”. In the case of `O=C(C1CCCCC1)N1CCC2CC1c1cc(Cl)ccc12` (centres undefined), the Potency is reported as inconclusive: 1.16 µM [activator, full curve, poor fit]. For `O=c1ccc(-c2ccc(S(=O)(=O)Nc3ccc(F)cc3)o2)n[nH]1`, the Potency was inconclusive: 4.11 µM [activator, partial curve, poor fit]. In the case of `COc1ccc(/C=C(/NC(=O)c2ccco2)C(=O)N2CCCCCC2)cc1OC`, the Potency is reported as inconclusive: 29.1 µM [activator, single point]. With `O=C(N/N=C/c1ccc([N+](=O)[O-])o1)c1ccc(NS(=O)(=O)c2cccs2)cc1` the Potency was inconclusive: 23.1 µM [activator, single point]. With `COc1ccc(-c2[nH]c(-c3ccc(C)cc3)nc2SCC(=O)NC2CCCC2)cc1` the Potency was inconclusive: 14.6 µM [activator, partial curve]. With `O[C@@H]([C@H](O)[C@H](O)CBr)[C@H](O)CBr` the Potency was inconclusive: 13.3 µM [activator, single point]. For `O=C(NCc1ccco1)c1nn2c(C(F)(F)F)cc(-c3cccs3)nc2c1Cl`, the Potency was inconclusive: 20.6 µM [activator, partial curve, poor fit]. In the case of `Cc1ccc(C)c(NC(=O)c2ccccc2O)c1`, the Potency is reported as inconclusive: 29.1 µM [activator, single point]. In the case of `Cc1sc2ncn(CC(=O)N(C)C3CCCCC3)c(=O)c2c1C`, the Potency is reported as inconclusive: 18.4 µM [activator, single point]. With `COC(=O)C1=C(C)N=C2SCCC(=O)N2C1/C=C/c1ccccc1` (centres undefined) the Potency was inconclusive: 5.8 µM [activator, partial curve, poor fit]. In the case of `CC(C)=Nc1ccccc1C1COC(=O)C1=N` (centres undefined), the Potency is reported as active: 0.517 µM. With `C/C(Cl)=C\Cn1c(NCCCn2ccnc2)nc2c1c(=O)n(C)c(=O)n2C` the Potency was “inactive”. In the case of `O=C(N/N=C/c1ccc(Cl)cc1)c1cc(-c2cccnc2)nc2ccccc12`, the Potency is reported as active: 4.11 µM. In the case of `COc1ccc(-n2nnnc2SCC(=O)N2C(C)CCCC2C)c(OC)c1` (centres undefined), the Potency is reported as inconclusive: 32.6 µM [activator, partial curve, poor fit]. In the case of `NC(=O)c1cc([N+](=O)[O-])ccc1NCc1cccc(N)c1`, the Potency is reported as inconclusive: 20.6 µM [activator, partial curve, poor fit]. For `COc1ccc2c(c1)OC[C@H]1[C@H]2N2C(=O)c3cc(OC)c(OC)cc3NC(=O)[C@@]2(C)[C@H]1c1ccccc1`, the Potency was active: 20.6 µM. With `COc1ccc(CNC(=O)COC(=O)c2sccc2C)cc1OC` the Potency was inconclusive: 29.1 µM [activator, single point]. With `CCCN(C(=O)Cn1ncc2c([nH]c3ccccc32)c1=O)c1ccccc1C` the Potency was inconclusive: 29.1 µM [activator, partial curve, poor fit]. With `COc1cc2cc(NC(C)=O)cc(NCc3ccccc3)c2cc1OC` the Potency was “inactive”. In the case of `CCOC(=O)c1c(C)sc2c1N(C(=O)CCl)c1cc(Cl)ccc1S2`, the Potency is reported as inconclusive: 13 µM [activator, partial curve, poor fit].
Potency means the concentration at half of the fitted maximal effect.
